Laboratory results as given in PMC8063088.
Results are given in words; binding and its absence hold for the method and conditions named. Binding seen in cells or lysates may run through a third protein. Some entries that bind do so weakly or less than the wild type.

Target: T1, RGMB, endogenous in adult mouse cortex (mouse (endogenous in adult mouse cortex)), Q7TQ33
T1 chain: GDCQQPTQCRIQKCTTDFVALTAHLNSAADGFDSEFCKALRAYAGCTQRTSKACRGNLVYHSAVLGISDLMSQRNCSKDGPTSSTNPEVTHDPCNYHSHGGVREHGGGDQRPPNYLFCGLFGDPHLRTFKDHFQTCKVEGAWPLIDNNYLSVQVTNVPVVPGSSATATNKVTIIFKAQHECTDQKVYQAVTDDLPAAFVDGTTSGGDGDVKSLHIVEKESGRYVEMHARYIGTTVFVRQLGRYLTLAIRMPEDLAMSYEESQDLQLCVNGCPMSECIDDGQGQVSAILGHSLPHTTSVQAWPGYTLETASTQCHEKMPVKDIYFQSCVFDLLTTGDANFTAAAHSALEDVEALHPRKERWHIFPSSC
Assay: co-IP; adult mouse cortex lysate (40 mM Tris-HCl pH 7.5, 200 mM NaCl, 10% glycerol, 5 mM EDTA, 0.4% NP-40); sheep anti-RGMB antibody or non-specific sheep IgG, protein G beads; immunoblot for NET1, NEO1, RGMB
Settings: remark: other sources report otherwise

binding: binds
B1: NEO1, endogenous in mouse brain and neurons, P97798 37-1492 (receptor)
chain: RPASGAAATKSGSPPQSAGASVRTFTPFYFLVEPVDTLSVRGSSVILNCSAYSEPSPNIEWKKDGTFLNLESDDRRQLLPDGSLFISNVVHSKHNKPDEGFYQCVATVDNLGTIVSRTAKLTVAGLPRFTSQPEPSSVYVGNSAILNCEVNADLVPFVRWEQNRQPLLLDDRIVKLPSGTLVISNATEGDGGLYRCIVESGGPPKFSDEAELKVLQDPEEIVDLVFLMRPSSMMKVTGQSAVLPCVVSGLPAPVVRWMKNEEVLDTESSGRLVLLAGGCLEISDVTEDDAGTYFCIADNGNKTVEAQAELTVQVPPGFLKQPANIYAHESMDIVFECEVTGKPTPTVKWVKNGDVVIPSDYFKIVKEHNLQVLGLVKSDEGFYQCIAENDVGNAQAGAQLIILEHDVAIPTLPPTSLTSATTDHLAPATTGPLPSAPRDVVASLVSTRFIKLTWRTPASDPHGDNLTYSVFYTKEGVARERVENTSQPGEMQVTIQNLMPATVYIFKVMAQNKHGSGESSAPLRVETQPEVQLPGPAPNIRAYATSPTSITVTWETPLSGNGEIQNYKLYYMEKGTDKEQDIDVSSHSYTINGLKKYTEYSFRVVAYNKHGPGVSTQDVAVRTLSDVPSAAPQNLSLEVRNSKSIVIHWQPPSSTTQNGQITGYKIRYRKASRKSDVTETLVTGTQLSQLIEGLDRGTEYNFRVAALTVNGTGPATDWLSAETFESDLDETRVPEVPSSLHVRPLVTSIVVSWTPPENQNIVVRGYAIGYGIGSPHAQTIKVDYKQRYYTIENLDPSSHYVITLKAFNNVGEGIPLYESAVTRPHTDTSEVDLFVINAPYTPVPDPTPMMPPVGVQASILSHDTIRITWADNSLPKHQKITDSRYYTVRWKTNIPANTKYKNANATTLSYLVTGLKPNTLYEFSVMVTKGRRSSTWSMTAHGATFELVPTSPPKDVTVVSKEGKPRTIIVNWQPPSEANGKITGYIIYYSTDVNAEIHDWVIEPVVGNRLTHQIQELTLDTPYYFKIQARNSKGMGPMSEAVQFRTPKADSSDKMPNDQALGSAGKGSRLPDLGSDYKPPMSGSNSPHGSPTSPLDSNMLLVIIVSVGVITIVVVVVIAVFCTRRTTSHQKKKRAACKSVNGSHKYKGNCKDVKPPDLWIHHERLELKPIDKSPDPNPVMTDTPIPRNSQDITPVDNSMDSNIHQRRNSYRGHESEDSMSTLAGRRGMRPKMMMPFDSQPPQPVISAHPIHSLDNPHHHFHSSSLASPARSHLYHPSSPWPIGTSMSLSDRANSTESVRNTPSTDTMPASSSQTCCTDHQDPEGATSSSYLASSQEEDSGQSLPTAHVRPSHPLKSFAVPAIPPPGPPLYDPALPSTPLLSQQALNHHIHSVKTASIGTLGRSRPPMPVVVPSAPEVQETTRMLEDSESSYEPDELTKEMAHLEGLMKDLNAITTA
